# Laboratory results from paper PMC2773129 (JACC. Cardiovascular imaging, 2009).
# Tested on: atherosclerotic plaques, VCAM-1
# Assay: Ex vivo uptake of 18F-4V in excised aortas
# Parameters: species or system mouse
# Conditions: apoE-/- mice, atorvastatin enriched in diet, 0.01% wt/wt; p<0.05
structure (smiles),measurement,value
"CC(C)c1c(C(=O)Nc2ccccc2)c(-c2ccccc2)c(-c2ccc(F)cc2)n1CC[C@@H](O)C[C@@H](O)CC(=O)O [atorvastatin, reference compound]",effect of treatment on uptake of 18F-4V in excised aortas,significantly reduced uptake
